Reference: paper PMC4931016
Results are given in words; binding and its absence hold for the method and conditions named. In cells and extracts the contact can be indirect. Some entries that bind do so weakly or less than the wild type. One block for each binder: values may come before it.

Amino acid sequences for entries named in this document (tags omitted). Residues count along the entry.
UniProt P16056, residues 25-1379: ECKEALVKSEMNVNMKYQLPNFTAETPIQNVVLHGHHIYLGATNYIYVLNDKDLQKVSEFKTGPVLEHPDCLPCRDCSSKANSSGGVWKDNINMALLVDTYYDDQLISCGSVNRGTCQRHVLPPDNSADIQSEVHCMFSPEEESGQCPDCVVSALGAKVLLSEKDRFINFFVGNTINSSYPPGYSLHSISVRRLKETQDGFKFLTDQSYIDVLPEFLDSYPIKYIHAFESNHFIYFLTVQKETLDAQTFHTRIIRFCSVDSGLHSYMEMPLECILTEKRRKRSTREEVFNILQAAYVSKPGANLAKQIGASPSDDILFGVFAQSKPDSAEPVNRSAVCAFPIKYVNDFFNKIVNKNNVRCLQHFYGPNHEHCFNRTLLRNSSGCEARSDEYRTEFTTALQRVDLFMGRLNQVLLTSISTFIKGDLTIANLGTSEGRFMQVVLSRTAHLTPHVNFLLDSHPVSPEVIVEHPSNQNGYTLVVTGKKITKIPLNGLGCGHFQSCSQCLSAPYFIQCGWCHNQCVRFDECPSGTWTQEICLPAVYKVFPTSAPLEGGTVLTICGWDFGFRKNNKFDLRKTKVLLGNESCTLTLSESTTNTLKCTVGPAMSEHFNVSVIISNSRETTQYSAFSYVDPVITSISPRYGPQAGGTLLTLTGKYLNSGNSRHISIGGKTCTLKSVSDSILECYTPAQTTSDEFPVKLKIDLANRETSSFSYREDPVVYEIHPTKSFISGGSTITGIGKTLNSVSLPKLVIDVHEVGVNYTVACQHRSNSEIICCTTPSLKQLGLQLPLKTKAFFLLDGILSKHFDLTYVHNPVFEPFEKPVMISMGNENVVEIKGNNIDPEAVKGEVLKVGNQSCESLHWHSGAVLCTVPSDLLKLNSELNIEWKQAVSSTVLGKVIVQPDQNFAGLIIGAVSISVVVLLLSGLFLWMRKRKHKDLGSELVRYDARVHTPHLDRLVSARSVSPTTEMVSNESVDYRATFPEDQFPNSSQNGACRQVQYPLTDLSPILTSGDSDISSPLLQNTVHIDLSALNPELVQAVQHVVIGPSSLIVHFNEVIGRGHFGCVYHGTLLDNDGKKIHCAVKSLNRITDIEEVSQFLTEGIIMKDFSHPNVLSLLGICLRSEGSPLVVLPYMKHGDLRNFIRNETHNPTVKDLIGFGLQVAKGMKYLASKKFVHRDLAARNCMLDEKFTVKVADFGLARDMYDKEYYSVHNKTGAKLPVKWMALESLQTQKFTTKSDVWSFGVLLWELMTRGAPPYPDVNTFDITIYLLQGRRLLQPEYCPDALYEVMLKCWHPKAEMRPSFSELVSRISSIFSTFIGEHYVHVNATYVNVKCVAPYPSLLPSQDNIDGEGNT
UniProt P08581, residues 25-1390: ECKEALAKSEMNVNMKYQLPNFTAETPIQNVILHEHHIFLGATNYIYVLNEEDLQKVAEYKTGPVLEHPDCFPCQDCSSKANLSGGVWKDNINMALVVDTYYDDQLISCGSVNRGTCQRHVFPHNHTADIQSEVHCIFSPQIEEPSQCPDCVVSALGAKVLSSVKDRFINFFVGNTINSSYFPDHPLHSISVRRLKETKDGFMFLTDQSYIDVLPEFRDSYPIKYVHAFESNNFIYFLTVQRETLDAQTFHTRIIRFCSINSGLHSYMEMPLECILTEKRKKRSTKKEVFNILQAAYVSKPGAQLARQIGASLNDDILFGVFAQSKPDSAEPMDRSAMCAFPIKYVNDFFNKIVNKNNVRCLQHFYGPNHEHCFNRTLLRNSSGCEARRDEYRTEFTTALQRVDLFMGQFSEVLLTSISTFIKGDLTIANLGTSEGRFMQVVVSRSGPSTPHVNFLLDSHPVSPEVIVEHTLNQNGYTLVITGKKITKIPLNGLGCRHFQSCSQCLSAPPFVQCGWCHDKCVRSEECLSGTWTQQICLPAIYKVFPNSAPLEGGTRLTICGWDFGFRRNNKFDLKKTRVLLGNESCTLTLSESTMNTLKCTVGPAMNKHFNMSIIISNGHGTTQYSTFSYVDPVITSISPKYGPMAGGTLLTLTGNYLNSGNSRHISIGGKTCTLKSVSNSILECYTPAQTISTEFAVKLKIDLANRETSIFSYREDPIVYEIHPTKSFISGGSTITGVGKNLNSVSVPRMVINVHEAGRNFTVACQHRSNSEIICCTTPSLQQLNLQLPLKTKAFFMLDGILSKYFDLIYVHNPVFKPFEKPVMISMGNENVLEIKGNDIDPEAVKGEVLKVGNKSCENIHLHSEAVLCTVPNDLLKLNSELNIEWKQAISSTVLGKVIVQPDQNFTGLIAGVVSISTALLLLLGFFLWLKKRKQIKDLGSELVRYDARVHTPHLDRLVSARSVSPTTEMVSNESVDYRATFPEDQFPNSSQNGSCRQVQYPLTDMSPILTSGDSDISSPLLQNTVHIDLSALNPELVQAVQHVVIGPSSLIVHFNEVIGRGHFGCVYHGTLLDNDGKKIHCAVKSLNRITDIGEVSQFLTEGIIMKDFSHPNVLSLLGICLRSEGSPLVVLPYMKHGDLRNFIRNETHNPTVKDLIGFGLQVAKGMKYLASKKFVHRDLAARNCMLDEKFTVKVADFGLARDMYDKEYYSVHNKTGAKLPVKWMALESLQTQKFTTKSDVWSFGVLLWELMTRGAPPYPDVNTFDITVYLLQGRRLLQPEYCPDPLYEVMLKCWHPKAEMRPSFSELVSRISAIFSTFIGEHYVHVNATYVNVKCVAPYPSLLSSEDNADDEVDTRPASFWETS

What was measured:
[1] = target: c-Met (hepatocyte growth factor receptor), endogenous in β1A and β1A-YYFF cells (mouse (endogenous in β1A cells)) (UniProt P16056); assay: co-IP; β1A (and β1A-YYFF) cells, HGF for 0 or 120 min; lysis in 0.5% Triton X-100, 20 mM Tris pH 7.5, 150 mM NaCl; immunoprecipitation with c-Met B2 antibody on protein A/G agarose beads, 4 °C; IgG and beads-only controls; western blot
[2] = target: c-Met (hepatocyte growth factor receptor), endogenous in A549 cells (human (endogenous in A549)) (UniProt P08581); assay: co-IP; A549 cells kept in suspension, without or with HGF for 120 min; control, β1-integrin or ATG5 siRNA; lysis in 0.5% Triton X-100, 20 mM Tris pH 7.5, 150 mM NaCl; immunoprecipitation with c-Met (CVD13) or β1-integrin antibody, IgG or no-antibody controls; western blot
[3] = target: β1-integrin, endogenous in A549 cells (human (endogenous in A549)), P05556; assay: as above; details: remark: other sources report otherwise

binding [1]: binds
B1: p52Shc, endogenous in β1A and β1A-YYFF cells (protein, UniProt P98083-2 1-469)
chain: MNKLSGGGGRRTRVEGGQLGGEEWTRHGSFVNKPTRGWLHPNDKVMGPGVSYLVRYMGCVEVLQSMRALDFNTRTQVTREAISLVCEAVPGAKGATRRRKPCSRPLSSILGRSNLKFAGMPITLTVSTSSLNLMAADCKQIIANHHMQSISFASGGDPDTAEYVAYVAKDPVNQRACHILECPEGLAQDVISTIGQAFELRFKQYLRNPPKLVTPHDRMAGFDGSAWDEEEEEPPDHQYYNDFPGKEPPLGGVVDMRLREGAARPTLPSAQMSSHLGATLPIGQHAAGDHEVRKQMLPPPPCPGRELFDDPSYVNIQNLDKARQAGGGAGPPNPSLNGSAPRDLFDMKPFEDALRVPPPPQSMSMAEQLQGEPWFHGKLSRREAEALLQLNGDFLVRESTTTPGQYVLTGLQSGQPKHLLLVDPEGVVRTKDHRFESVSHLISYHMDNHLPIISAGSELCLQQPVDRKV

binding [2]: binds
B2: p52Shc, endogenous in A549 cells (protein, UniProt P29353-2 1-473)
chain: MNKLSGGGGRRTRVEGGQLGGEEWTRHGSFVNKPTRGWLHPNDKVMGPGVSYLVRYMGCVEVLQSMRALDFNTRTQVTREAISLVCEAVPGAKGATRRRKPCSRPLSSILGRSNLKFAGMPITLTVSTSSLNLMAADCKQIIANHHMQSISFASGGDPDTAEYVAYVAKDPVNQRACHILECPEGLAQDVISTIGQAFELRFKQYLRNPPKLVTPHDRMAGFDGSAWDEEEEEPPDHQYYNDFPGKEPPLGGVVDMRLREGAAPGAARPTAPNAQTPSHLGATLPVGQPVGGDPEVRKQMPPPPPCPGRELFDDPSYVNVQNLDKARQAVGGAGPPNPAINGSAPRDLFDMKPFEDALRVPPPPQSVSMAEQLRGEPWFHGKLSRREAEALLQLNGDFLVRESTTTPGQYVLTGLQSGQPKHLLLVDPEGVVRTKDHRFESVSHLISYHMDNHLPIISAGSELCLQQPVERKL

binding [3]: binds
B3: p52Shc, endogenous in A549 cells, P29353-2 1-473 (protein)
chain: B2 chain
